Experimental findings from US20110243924A1, “NOVEL METHODS” (priority 2007, published 2011) are described below.

The data set can be described thus: In vitro stability in human plasma. Conditions: 36° C., 5 μg/ml, 60 min.

`C[N+]1(C)CCC(OC(=O)C(O)(c2ccccc2)C2CCCC2)C1` (centres unmarked) [glycolpyrrolate, (1,1-dimethyl-2,3,4,5-tetrahydropyrrol-3-yl) 2-cyclopentyl-2-hydroxy-2-phenyl-acetate] gave a Plasma degradation of 9%. For `CC(C)[N+]1(C)[C@@H]2CC[C@H]1C[C@@H](OC(=O)C(CO)c1ccccc1)C2` (some centres unmarked) [ipratropium, [8-methyl-8-(1-methylethyl)-8-azoniabicyclo[3.2.1]oct-3-yl]3-hydroxy-2-phenyl-propanoate] the value was 0%.
